From patent publication US20200283523A1
Results are given in words; binding and its absence hold for the method and conditions named. Some entries that bind do so weakly or less than the wild type.

Protein sequences, listed by entry. Tags and fused reporters are not part of them. Lines headed by an entry give the natural chain unless they say otherwise; changes in a name come on top. Chains listed by the source or under a name are the forms on record and can include a tag or linker. Residues count along the entry.
UniProt P12314, residues 16-288: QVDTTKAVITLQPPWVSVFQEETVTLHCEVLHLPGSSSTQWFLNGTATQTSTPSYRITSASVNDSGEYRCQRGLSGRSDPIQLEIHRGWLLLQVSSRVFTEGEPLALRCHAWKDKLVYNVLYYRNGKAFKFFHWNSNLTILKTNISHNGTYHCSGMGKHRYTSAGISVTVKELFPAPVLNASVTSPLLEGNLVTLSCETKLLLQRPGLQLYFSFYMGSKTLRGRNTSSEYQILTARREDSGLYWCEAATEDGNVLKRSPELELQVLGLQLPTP
FcγRIIIa (F176) (P08637, residues 17-208): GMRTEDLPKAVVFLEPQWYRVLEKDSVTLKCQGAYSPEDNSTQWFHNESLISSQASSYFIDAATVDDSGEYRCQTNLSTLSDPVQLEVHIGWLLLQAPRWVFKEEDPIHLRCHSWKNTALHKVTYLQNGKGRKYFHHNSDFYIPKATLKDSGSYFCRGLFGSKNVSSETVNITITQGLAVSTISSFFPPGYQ
FcγRIIIa (V176) (P08637, form named): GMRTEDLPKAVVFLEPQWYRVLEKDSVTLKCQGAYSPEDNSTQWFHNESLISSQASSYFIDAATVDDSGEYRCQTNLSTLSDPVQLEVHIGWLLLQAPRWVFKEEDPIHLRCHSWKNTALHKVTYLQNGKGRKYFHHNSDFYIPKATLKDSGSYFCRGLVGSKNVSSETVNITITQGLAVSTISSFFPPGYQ
UniProt O75015, residues 17-200: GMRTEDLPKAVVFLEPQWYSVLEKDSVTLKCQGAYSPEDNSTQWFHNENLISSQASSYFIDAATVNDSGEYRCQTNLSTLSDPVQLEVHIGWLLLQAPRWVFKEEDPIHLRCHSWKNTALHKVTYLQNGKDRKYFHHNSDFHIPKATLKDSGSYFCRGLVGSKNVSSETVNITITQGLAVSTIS
FcγRIIa (H167) (P12318, residues 36-218): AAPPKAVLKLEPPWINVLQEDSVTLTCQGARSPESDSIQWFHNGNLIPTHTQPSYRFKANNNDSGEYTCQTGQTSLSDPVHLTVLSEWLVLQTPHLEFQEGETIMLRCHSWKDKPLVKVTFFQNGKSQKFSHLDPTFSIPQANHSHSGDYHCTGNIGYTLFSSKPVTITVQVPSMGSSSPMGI
FcγRIIa (R167) (P12318, form named): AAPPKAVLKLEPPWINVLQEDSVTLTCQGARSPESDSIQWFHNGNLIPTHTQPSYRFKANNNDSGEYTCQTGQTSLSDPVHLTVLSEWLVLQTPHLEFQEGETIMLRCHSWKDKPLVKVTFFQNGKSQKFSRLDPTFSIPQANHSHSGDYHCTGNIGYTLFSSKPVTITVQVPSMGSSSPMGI
UniProt P31994, residues 46-217: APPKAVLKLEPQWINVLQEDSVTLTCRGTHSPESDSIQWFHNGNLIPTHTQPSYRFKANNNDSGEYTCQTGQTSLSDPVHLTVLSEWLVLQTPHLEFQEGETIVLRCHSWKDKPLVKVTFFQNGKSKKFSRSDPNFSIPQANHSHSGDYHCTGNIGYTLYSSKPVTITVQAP
UniProt P15391, residues 20-556: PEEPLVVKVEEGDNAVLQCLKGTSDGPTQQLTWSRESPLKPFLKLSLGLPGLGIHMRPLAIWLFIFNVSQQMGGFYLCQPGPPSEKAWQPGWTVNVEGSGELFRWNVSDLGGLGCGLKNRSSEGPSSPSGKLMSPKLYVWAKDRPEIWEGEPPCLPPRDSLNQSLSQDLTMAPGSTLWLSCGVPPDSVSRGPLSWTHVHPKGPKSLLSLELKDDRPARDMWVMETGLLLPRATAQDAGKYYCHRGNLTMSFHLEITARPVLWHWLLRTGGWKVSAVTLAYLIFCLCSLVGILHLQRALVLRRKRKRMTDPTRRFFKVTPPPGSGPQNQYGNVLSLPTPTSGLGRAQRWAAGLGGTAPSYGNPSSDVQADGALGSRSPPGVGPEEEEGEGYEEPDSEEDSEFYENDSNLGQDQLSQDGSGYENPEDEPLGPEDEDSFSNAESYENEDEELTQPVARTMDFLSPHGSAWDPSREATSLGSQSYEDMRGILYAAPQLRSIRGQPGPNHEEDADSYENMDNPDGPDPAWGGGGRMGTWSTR

Assays:
FcγRI = FcγRI (UniProt P12314); assay: SPR
FcγRIIIa (F176) = FcγRIIIa (F176) (UniProt P08637); assay: SPR
FcγRIIIa (V176) = FcγRIIIa (V176) (UniProt P08637); assay: SPR
FcγRIIIb = FcγRIIIb (UniProt O75015); assay: SPR
FcγRIIa (H167) = FcγRIIa (H167) (UniProt P12318); assay: SPR
FcγRIIa (R167) = FcγRIIa (R167) (UniProt P12318); assay: SPR
FcγRIIb = FcγRIIb (UniProt P31994); assay: SPR
human CD19 (human) [1] = target: human CD19 (human) (UniProt P15391); assay: flow cytometry on Ramos cells, PE anti-human IgG Fc detection
human CD19 (human) [2] = target: human CD19 (human) (UniProt P15391); assay: flow cytometry on Ramos cells after incubation in human serum at 37° C.
human CD19 (human) [3] = target: human CD19 (human) (UniProt P15391); assay: flow cytometry affinity test on Ramos cells, Bound/Free against bound IgG
[4] = target: cynomolgus CD19 (cynomolgus monkey); assay: flow cytometry on cynomolgus CD19 expressing CHO-K1 cells, anti-human IgG Fc detection
human CD19 (human) [5] = target: human CD19 (human) (UniProt P15391); assay: flow cytometry bridging of pre-labelled Raji (CD19+) and Jurkat (CD3+) cells with 10 nM antibody
human CD19 (human) [6] = target: human CD19 (human) (UniProt P15391); assay: flow cytometry on Ramos cells after incubation of the antibody in human serum at 37 C for 0, 1, 4, 7 and 14 days

Measured: binding

B1: W3438-T3U4.E17-1.uIgG4.SP (bispecific antibody)
light 1: DIVMTQSPDSLAVSLGERATINCKSSQSLLNSRTRKNYLAWYQQKPGQPPKLLIYWASTRQSGVPDRFSGSGSGTDFTLTISSLQAEDVAVYYCTQSHTLRTFGGGTKVEIKPDIQNPDPAVYQLRDSKSSDKSVCLFTDFDSQTQVSQSKDSDVYITDKCVLDMRSMDFKSNSAVAWSQKSDFACANAFQNSIIPEDTFFPSPESS
heavy 1: QVQLVQSGAEVKKPGSSVKVSCKASGFAFTDYYIHWVRQAPGQGLEWMGWISPGNVNTKYNENFKGRVTITADKSTSTAYMELSSLRSEDTAVYYCARDGYSLYYFDYWGQGTLVTVLEDLKNVFPPEVAVFEPSEAEISHTQKATLVCLATGFYPDHVELSWWVNGKEVHSGVCTDPQPLKEQPALQDSRYALSSRLRVSATFWQNPRNHFRCQVQFYGLSENDEWTQDRAKPVTQIVSAEAWGRYGPPCPPCPAPEFLGGPSVFLFPPKPKDTLMISRTPEVTCVVVDVSQEDPEVQFNWYVDGVEVHNAKTKPREEQFNSTYRVVSVLTVLHQDWLNGKEYKCKVSNKGLPSSIEKTISKAKGQPREPQVYTLPPCQEEMTKNQVSLWCLVKGFYPSDIAVEWESNGQPENNYKTTPPVLDSDGSFFLYSRLTVDKSRWQEGNVFSCSVMHEALHNHYTQKSLSLSLGK
light 2: DIQLTQSPSFLSASVGDRVTITCSASSTVNYMHWYQQKPGKAPKLLIYSTSNLASGVPSRFSGSGSGTEFTLTISSLQPEDFATYYCHQWSSYPYTFGQGTKLEIKRTVAAPSVFIFPPSDEQLKSGTASVVCLLNNFYPREAKVQWKVDNALQSGNSQESVTEQDSKDSTYSLSSTLTLSKADYEKHKVYACEVTHQGLSSPVTKSFNRGEC
heavy 2: QMQLVQSGPEVKKPGTSVKVSCKASGYAFTSYNMYWVRQARGQRLEWIGYIDPYNGDTTYNQKFKGRVTITRDMSTSTAYMELSSLRSEDTAVYYCLTTAYAMDYWGQGTLVTVSSASTKGPSVFPLAPCSRSTSESTAALGCLVKDYFPEPVTVSWNSGALTSGVHTFPAVLQSSGLYSLSSVVTVPSSSLGTKTYTCNVDHKPSNTKVDKRVESKYGPPCPPCPAPEFLGGPSVFLFPPKPKDTLMISRTPEVTCVVVDVSQEDPEVQFNWYVDGVEVHNAKTKPREEQFNSTYRVVSVLTVLHQDWLNGKEYKCKVSNKGLPSSIEKTISKAKGQPREPQVCTLPPSQEEMTKNQVSLSCAVKGFYPSDIAVEWESNGQPENNYKTTPPVLDSDGSFFLVSRLTVDKSRWQEGNVFSCSVMHEALHNHYTQKSLSLSLGK
binds: all assays above
